The values below come from patent publication US20130216513A1.

By UniProt entry, the sequences of proteins in these tests, tags left out. Where a name states a change or a piece, a line headed by the entry shows the natural chain unless it says otherwise. Residues count along the entry.
UniProt P07359, residues 17-652: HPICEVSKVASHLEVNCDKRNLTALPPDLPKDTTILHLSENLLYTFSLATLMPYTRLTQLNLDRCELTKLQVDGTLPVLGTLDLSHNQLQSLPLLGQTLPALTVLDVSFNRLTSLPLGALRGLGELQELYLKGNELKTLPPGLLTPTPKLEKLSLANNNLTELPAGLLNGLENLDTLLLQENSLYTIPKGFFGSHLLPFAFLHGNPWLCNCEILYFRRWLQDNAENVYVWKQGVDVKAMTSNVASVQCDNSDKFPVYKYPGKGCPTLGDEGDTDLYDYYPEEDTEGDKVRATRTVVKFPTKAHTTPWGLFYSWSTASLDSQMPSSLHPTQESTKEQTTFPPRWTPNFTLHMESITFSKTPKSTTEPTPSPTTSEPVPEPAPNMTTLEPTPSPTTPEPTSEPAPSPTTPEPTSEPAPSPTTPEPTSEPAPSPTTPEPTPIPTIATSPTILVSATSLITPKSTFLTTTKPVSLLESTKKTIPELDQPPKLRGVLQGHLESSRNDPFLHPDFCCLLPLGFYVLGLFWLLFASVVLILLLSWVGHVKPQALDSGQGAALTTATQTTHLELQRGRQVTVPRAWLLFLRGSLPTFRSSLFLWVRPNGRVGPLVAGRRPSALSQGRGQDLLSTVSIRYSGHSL
UniProt P08514: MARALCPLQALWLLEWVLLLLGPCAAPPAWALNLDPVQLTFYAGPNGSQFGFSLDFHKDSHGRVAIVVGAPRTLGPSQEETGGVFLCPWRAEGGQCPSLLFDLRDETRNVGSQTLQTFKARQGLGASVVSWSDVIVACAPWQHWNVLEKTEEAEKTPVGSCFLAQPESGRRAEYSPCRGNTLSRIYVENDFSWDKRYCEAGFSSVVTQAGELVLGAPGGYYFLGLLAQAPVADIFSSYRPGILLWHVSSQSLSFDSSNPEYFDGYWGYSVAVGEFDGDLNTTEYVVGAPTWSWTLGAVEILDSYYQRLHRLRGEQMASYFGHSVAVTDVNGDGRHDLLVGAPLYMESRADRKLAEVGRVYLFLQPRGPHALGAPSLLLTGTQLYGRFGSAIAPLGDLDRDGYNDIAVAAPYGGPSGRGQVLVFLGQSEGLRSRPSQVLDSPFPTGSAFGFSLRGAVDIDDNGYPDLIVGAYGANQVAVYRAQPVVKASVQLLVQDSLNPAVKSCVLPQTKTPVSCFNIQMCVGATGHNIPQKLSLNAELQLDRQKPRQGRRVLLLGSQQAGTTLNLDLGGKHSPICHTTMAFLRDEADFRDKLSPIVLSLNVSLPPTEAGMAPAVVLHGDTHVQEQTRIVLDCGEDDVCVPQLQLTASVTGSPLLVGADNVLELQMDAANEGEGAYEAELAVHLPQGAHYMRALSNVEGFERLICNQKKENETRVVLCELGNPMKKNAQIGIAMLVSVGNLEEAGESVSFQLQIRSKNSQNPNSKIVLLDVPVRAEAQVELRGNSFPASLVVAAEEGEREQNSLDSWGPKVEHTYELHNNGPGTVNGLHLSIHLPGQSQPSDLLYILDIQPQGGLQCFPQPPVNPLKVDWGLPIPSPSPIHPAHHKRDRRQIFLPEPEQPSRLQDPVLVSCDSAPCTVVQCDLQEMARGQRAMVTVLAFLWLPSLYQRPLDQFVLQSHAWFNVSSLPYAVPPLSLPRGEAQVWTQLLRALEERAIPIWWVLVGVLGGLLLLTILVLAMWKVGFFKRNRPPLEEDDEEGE
UniProt P05106: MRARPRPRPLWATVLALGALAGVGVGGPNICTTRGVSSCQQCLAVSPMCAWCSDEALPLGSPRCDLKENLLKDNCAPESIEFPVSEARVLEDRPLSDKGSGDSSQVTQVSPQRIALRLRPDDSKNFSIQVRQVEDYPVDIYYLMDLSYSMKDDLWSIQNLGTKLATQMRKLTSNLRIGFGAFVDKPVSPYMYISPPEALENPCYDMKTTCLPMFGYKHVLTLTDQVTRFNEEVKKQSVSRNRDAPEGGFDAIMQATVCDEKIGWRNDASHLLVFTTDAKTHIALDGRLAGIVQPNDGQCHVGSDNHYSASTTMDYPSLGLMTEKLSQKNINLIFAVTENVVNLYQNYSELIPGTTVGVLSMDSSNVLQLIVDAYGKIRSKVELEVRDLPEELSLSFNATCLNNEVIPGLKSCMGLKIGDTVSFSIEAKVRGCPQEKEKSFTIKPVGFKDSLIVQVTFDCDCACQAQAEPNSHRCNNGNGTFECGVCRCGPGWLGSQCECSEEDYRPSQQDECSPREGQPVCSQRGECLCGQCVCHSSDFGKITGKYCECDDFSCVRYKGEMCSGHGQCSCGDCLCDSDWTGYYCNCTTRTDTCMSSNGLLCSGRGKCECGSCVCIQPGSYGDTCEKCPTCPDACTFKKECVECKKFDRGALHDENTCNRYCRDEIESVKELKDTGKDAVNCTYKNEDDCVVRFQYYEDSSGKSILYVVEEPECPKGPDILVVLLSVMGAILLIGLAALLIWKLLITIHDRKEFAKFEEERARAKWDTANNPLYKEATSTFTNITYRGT
UniProt P08709: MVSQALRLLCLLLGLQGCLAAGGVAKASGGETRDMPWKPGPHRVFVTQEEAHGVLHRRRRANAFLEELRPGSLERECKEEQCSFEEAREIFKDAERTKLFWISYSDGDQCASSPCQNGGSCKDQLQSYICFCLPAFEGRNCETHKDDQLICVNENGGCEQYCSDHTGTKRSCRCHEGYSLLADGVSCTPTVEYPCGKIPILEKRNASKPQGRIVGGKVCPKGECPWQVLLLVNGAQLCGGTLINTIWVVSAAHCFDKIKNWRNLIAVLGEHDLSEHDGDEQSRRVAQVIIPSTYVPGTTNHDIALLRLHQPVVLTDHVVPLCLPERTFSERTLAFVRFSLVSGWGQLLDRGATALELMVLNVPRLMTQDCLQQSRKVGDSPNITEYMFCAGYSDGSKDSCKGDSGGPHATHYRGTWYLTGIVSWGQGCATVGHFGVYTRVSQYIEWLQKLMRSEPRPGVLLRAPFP

The target in assay [1] is platelet receptor GPIb-alpha (UniProt P07359). The assay can be described thus: FACS on activated platelets; FIG. 48 (the legend and the next sentence name FVII-045 instead of FVII-049).
The target in assay [2] is GPIIbIIIa on activated human platelets (human) (UniProt P08514+P05106). Put plainly: FACS on activated human platelets, FITC-labeled FVII antibody; reference FVIIaFc (FVII-011); FIG. 44C.

These are yes or no findings as the source states them, for the method shown. Some binding calls cover weakened binding; strength is not graded here.

Regarding “FVII-049 (from UniProt P08709 61-212) (Fc fusion)”, the binding entry in assay [1] is on record as “binds”.

Take “FVII-066 (from UniProt P08709 61-212) (Fc fusion)”: the binding entry in assay [2] is “binds”.
